{"source": "paper PMC6347170", "binders": {"B1": {"name": "Mpd1 (protein, UniProt Q12404 22-318)", "chain": "QNFYDSDPHISELTPKSFDKAIHNTNYTSLVEFYAPWCGHCKKLSSTFRKAAKRLDGVVQVAAVNCDLNKNKALCAKYDVNGFPTLMVFRPPKIDLSKPIDNAKKSFSAHANEVYSGARTLAPIVDFSLSRIRSYVKKFVRIDTLGSLLRKSPKLSVVLFSKQDKISPVYKSIALDWLGKFDFYSISNKKLKQLTDMNPTYEKTPEIFKYLQKVIPEQRQSDKSKLVVFDADKDKFWEYEGNSINKNDISKFLRDTFSITPNEGPFSRRSEYIAYLKTGKKPIKKNHSSSGNKHDEL"}}, "target": "T1, His14-Sec61S353C (S. cerevisiae) (UniProt P32915)", "T1 sequence": "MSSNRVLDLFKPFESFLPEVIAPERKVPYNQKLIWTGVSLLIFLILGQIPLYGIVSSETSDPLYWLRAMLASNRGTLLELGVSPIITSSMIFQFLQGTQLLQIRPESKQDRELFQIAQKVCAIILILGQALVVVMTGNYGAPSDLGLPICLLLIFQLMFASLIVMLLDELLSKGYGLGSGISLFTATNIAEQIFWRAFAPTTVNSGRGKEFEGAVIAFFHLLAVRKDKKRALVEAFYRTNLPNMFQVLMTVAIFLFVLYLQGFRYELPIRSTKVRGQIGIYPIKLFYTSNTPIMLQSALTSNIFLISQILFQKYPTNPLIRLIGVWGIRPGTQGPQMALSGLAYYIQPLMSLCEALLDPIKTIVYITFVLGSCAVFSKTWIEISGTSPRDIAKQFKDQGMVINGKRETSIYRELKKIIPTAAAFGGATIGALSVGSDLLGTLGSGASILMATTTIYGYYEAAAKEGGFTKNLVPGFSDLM", "test": "cross-linking + affinity purification with mass spectrometry; 500 eq microsomes of His14-Sec61 or His14-Sec61S353C crosslinked with SMPH or LC-SPDP (DMSO as control), solubilised and denatured (65°C), purified on HisTrap, fractions 3-10 pooled, LC-MS/MS; interactors at least 3-fold enriched over the uncrosslinked sample; crosslinked peptides sought with xQuest/xProphet", "note": "These are yes or no findings as the source states them, for the method shown. Binding seen in cells or lysates may run through a third protein. A yes stands for co-enrichment or nearness to the bait. Other partners may have been found. Where a sequence is shown, tags or fusion partners need not be part of it."}
{"binder": "B1", "values": [{"measurement": "binding", "value": "binds"}]}
